Results deposited as PubChem BioAssay AID602196 (INSERM, 2012)

- Aim: 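Modifiers of cisplatin sensitivity in A549 cells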
- Cells: human A549 lung cancer cells
- Reagents: siRNA pair against human genes
- Timing: 48 h transfection before cisplatin; time from cisplatin to read-out not stated
- Challenge: cisplatin at a dose killing half of control-siRNA cells; exact dose and duration not given
- Read-out: 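Shift in cisplatin death relative to control siRNA, from -50 (all cells die) to +50 (no cells die); siRNAs harmful on their own scored 0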
- Direction: two-siRNA summed score (-2 to +2): higher = both siRNAs protect from cisplatin killing; -2 means both sensitise; mean protection from cisplatin (shift in death): higher = protection from cisplatin killing
- Rule for the call: 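Each siRNA scores 0 if harmful alone by LDH or WST-1, otherwise +1 if it reduces and -1 if it increases cisplatin killing; a gene is active when both siRNAs agree (sum +2 or -2)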
- Meaning of the calls: active = both siRNAs shift cisplatin killing the same way; inactive = no consistent shift, or siRNA harmful alone
Shown is a random part of about 23,000 reagents. 455 of all reagents (2%) were called active. 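Active includes both protection and sensitisation; some change values fall well beyond the stated -50 to +50 range.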 A number with no mark means an inactive call. Further read-outs or replicates are left out here. Not stated in the record: the amount of reagent.

| gene | two-siRNA summed score (-2 to +2) | mean protection from cisplatin (shift in death) (%) |
| --- | --- | --- |
| YWHAB | 0 | 1.4 |
| HORMAD1 | 0 | 2 |
| LOC402165 | 0 | -5.2 |
| PIMREG | -1 | -15.6 |
| PRP4K | 0 | -1.1 |
| SEL1L3 | 0 | -1.8 |
| OR4K14 | 0 | -1.8 |
| BORCS7 | 0 | -1.8 |
| HOMER2 | 0 | -1.7 |
| TMCO2 | 1 | 11.8 |
| LOC441727 | 1 | 17.3 |
| PGM5 | 0 | 39.5 |
| LOC148490 | 1 | 10.9 |

Part of the list above in another layout.
SEL1L3: two-siRNA summed score (-2 to +2) = 0; mean protection from cisplatin (shift in death) (%) = -1.8
OR4K14: two-siRNA summed score (-2 to +2) = 0; mean protection from cisplatin (shift in death) (%) = -1.8
BORCS7: two-siRNA summed score (-2 to +2) = 0; mean protection from cisplatin (shift in death) (%) = -1.8
HOMER2: two-siRNA summed score (-2 to +2) = 0; mean protection from cisplatin (shift in death) (%) = -1.7
TMCO2: two-siRNA summed score (-2 to +2) = 1; mean protection from cisplatin (shift in death) (%) = 11.8

Additional entries:
| gene | two-siRNA summed score (-2 to +2) | mean protection from cisplatin (shift in death) (%) |
| --- | --- | --- |
| PDE4DIPP3 | 0 | 8.2 |
| TCF4 | 0 | 9.6 |
| LOC392554 | 0 | 15.4 |
| DKFZp434O0320 | 0 | 3 |
| LOC402560 | 0 | 6.4 |
| FCRL4 | 0 | 10 |
| GABRD | 0 | 28.2 |
| LOC388684 | 0 | 9.2 |
| POLH | 0 | -0.7 |
| ACTL9 | 1 | 15 |
| CFAP20DC | 0 | -6.4 |
| RAB40C | -1 | -18.2 |
| ABCA6 | 0 | 0.9 |
| SLC12A2 | 0 | -5.9 |
| LOC400472 | 0 | 2 |
| TMEM229B | 0 | 2.8 |
| IGF1R | -1 | -12.3 |
| LOC149329 | 0 | 13.5 |
| LONP1 | 0 | 6.3 |
| CCND1 | 1 | 28 |
| LIPG | -1 | -13.9 |
| DUSP2 | 0 | 1.2 |
| TSPAN10 | 1 | 10.8 |
| VPS4A | 0 | 8.6 |
| GPR157 | 0 | 3.8 |
| SULT1C3 | 0 | 9.4 |
